Data reported in PubChem BioAssay (NCATS).
Some of the results follow. These are further read-outs of the screen, such as a control signal, another cell line or another target. No call is given for them. Most of these compounds were active or inconclusive in the main read-out, so they are no random draw. Words in brackets tell the shape of the fitted curve; partial curves, single points and poor fits give uncertain potencies.

Assay: qHTS Assay for Inhibitors of PDE-IV (AID 607)
Conditions: HEK293 ACTOne CNG channel cells, membrane potential fluorescence; measured here: parental cell counter-screen
Summary of the method: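 HEK293 ACTOne cells with CNG channel (1000/well), endogenous PDE4; membrane potential dye, compounds up to 22.9 uM final. Fluorescence Ex 535/Em 590; RO 20-1724 (100 uM final) as reference.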
For `COc1ccccc1-c1ccc2ncnc(Nc3ccccc3)c2c1`, the AC50 was 12.6 µM [rising, single point].
In the case of `Clc1ccc(CO[C@@H](Cn2ccnc2)c2ccc(Cl)cc2Cl)cc1`, the AC50 is reported as 5.01 µM [rising, single point].
For `CC(C)=CCC/C(C)=C/COc1c2ccoc2cc2oc(=O)ccc12`, the AC50 was 15.8 µM [rising, partial curve].
For `COc1ccccc1-c1nccc(Nc2ccc(F)cc2)n1`, the AC50 was 10 µM [rising, partial curve].
For `COC(=O)[C@@]1(Cc2ccccc2)[C@H]2c3cc(C(=O)N4CCCC4)n(Cc4ccsc4Br)c3C[C@H]2CN1C(=O)c1ccccc1`, the AC50 was 3.16 µM [rising, single point].
For `O=C(O)COC(=O)Cc1ccccc1Nc1c(Cl)cccc1Cl`, the AC50 was 3.98 µM [rising, partial curve, poor fit].
In the case of `C[C@@H]1C[C@H]2[C@@H]3C[C@H](F)C4=CC(=O)C=C[C@@]4(C)[C@]3(F)[C@H](O)C[C@]2(C)[C@@]1(O)C(=O)CO`, the AC50 is reported as 0.158 µM [rising, full curve, poor fit].
For `COc1cccc(OC)c1OCCNC[C@@H]1CSc2ccccc2O1`, the AC50 was 12.6 µM [rising, partial curve].
For `CCC/C=C(\CCC)C(NC(=O)C(C)(C)C)c1ccc(C(=O)OC)cc1` (configuration not stated), the AC50 was 10 µM [rising, partial curve].
In the case of `COC(=O)[C@@H]1C[C@H]1[C@@H](NS(=O)(=O)c1ccc(-c2ccccc2)cc1)c1ccccc1`, the AC50 is reported as 0.631 µM [rising, single point].
With `CN(C)Cc1ccccc1-c1nc(NCc2cccs2)c2ccccc2n1` the AC50 was 10 µM [rising, partial curve].
With `CCC/C=C(\CCC)C(NS(=O)(=O)CC12CCC(CC1=O)C2(C)C)c1ccc(C(=O)OC)cc1` (configuration not stated) the AC50 was 2 µM [rising, partial curve].
For `CS(=O)(=O)N1CCC2(CCCN(C(=O)Nc3cccc(C#N)c3)C2)CC1`, the AC50 was 0.501 µM [rising, single point].
In the case of `O=C(c1ccncc1)N1CCC2(CC1)CCN(c1ccncc1)CC2`, the AC50 is reported as 0.00316 µM [falling, full curve, poor fit].
With `C[C@@H](C(=O)Nc1ccc2ccccc2c1)[C@H]1C[C@]1(C)[C@H](NC(=O)c1ccccc1)c1ccccc1` the AC50 was 0.631 µM [rising, single point].
With `C=C[C@@]1(C)CC(=O)[C@@]2(O)[C@@]3(C)[C@@H](O)CCC(C)(C)[C@@H]3[C@H](OC(=O)CCN(C)C)[C@H](OC(C)=O)[C@@]2(C)O1` the AC50 was 0.0794 µM [rising, full curve].
With `COc1ccccc1-c1nccc(NCc2ccccc2)n1` the AC50 was 7.94 µM [rising, partial curve, poor fit].
In the case of `CC(C)(C)[C@@]1(O)CCN2C[C@@H]3c4ccccc4CCc4cccc(c43)[C@@H]2C1`, the AC50 is reported as 5.01 µM [rising, partial curve, poor fit].
With `O=C(c1ccco1)N1CCC2(CCN(Cc3ccccc3)CC2)CC1` the AC50 was 3.16 µM [rising, single point].
In the case of `CCCCOc1cc(C(=O)OCCN(CC)CC)ccc1N`, the AC50 is reported as 1 µM [rising, partial curve, poor fit].
For `COC(=O)[C@@]1(Cc2ccccc2)[C@H]2c3cc(C(=O)N4CCCC4)n(Cc4cccc5ccccc45)c3C[C@H]2CN1C(=O)c1ccccc1`, the AC50 was 1.58 µM [rising, partial curve].
With `C[C@H]1CC(C)(C)C[C@@](OCCN2CCCCC2)(c2ccccc2)C1` the AC50 was 1.26 µM [rising, partial curve].
In the case of `COC(=O)[C@@]1(Cc2ccc(OC)cc2)[C@H]2c3cc(C(=O)N4CCCC4)n(Cc4cc(F)cc5c4OCOC5)c3C[C@H]2CN1C(=O)c1ccccc1`, the AC50 is reported as 12.6 µM [rising, single point].
For `CC[C@H](Cc1c(I)cc(I)c(N)c1I)C(=O)O`, the AC50 was 6.31 µM [rising, partial curve, poor fit].
For `O=S(=O)(c1ccccc1)N1CCC[C@@]2(CCN(Cc3cc(C(F)(F)F)cc(C(F)(F)F)c3)C2)C1`, the AC50 was 0.1 µM [rising, full curve, poor fit].
With `O=C(c1csnn1)N1CCC2(CC1)CCN(c1ccncc1)CC2` the AC50 was 3.98 µM [rising, single point].
In the case of `CC(=O)N[C@H](c1ccccc1)[C@@]1(C)C[C@@H]1[C@@H](C)C(=O)Nc1ccc2ccccc2c1`, the AC50 is reported as 0.631 µM [rising, single point].
